Some of these results come from one statement about several compounds together.
System: ALP
Test: Fluorescence response depending on ALP concentration
Assay type: biochemical
Conditions: for time within which ALP was detected: ALP 10^−5 to 1.0 UmL^−1; for ALP level that can be detected with high sensitivity: corresponding to blood level in healthy adults; for UV absorption bands: probe 5 μM, Tris-HCl buffer 10 mM, pH 7.4
Experimental: Reactivity depending on ALP concentration was evaluated for the NIR-Phos-1 and NIR-Phos-2 fluorescent probes. After dissolving the fluorescent probe (5 μM) in a Tri-HCl buffer (10 mM, pH 7.4), the fluorescence spectrum occurring as a result of reaction with ALP (0.1 UmL^−1) was investigated.
From FIG. 5B and FIG. 5D, it can be seen that fluorescence spectra are changed variously by adding a Tris-HCl buffer (10 mM, pH 7.4) to ALP (10^−5 to 1.0 UmL^−1) of various concentrations.

Row | SMILES | time within which ALP was detected | ALP level that can be detected with high sensitivity | UV absorption bands
1 | CC[N+]1=C(/C=C/C2=C3Oc4cc(OCc5ccc(OP(=O)(O)O)cc5)ccc4C=C3CCC2)C(C)(C)c2cc(S(=O)(=O)[O-])ccc21 [NIR-Phos-1, (E)-1-ethyl-3,3-dimethyl-2-(2-(6-((4-(phosphonooxy)benzyl)oxy)-2,3-dihydro-1H-xanthen-4-yl)vinyl)-3H-indol-1-ium-5-sulfonate] | ≤ 2 min | 0.02-0.14 UmL^−1 | 600-700 nm
2 | CC[N+]1=C(/C=C/C2=C3Oc4cc(OP(=O)(O)O)ccc4C=C3CCC2)C(C)(C)c2cc(S(=O)(=O)[O-])ccc21 [NIR-Phos-2, (E)-1-ethyl-3,3-dimethyl-2-(2-(6-(phosphonooxy)-2,3-dihydro-1H-xanthen-4-yl)vinyl)-3H-indol-1-ium-5-sulfonate] | ≤ 2 min | 0.02-0.14 UmL^−1 | 600-700 nm

Reference: patent US10267737B2, “Near-infrared fluorescent probe for detecting alkaline phosphatase and manufacturing method thereof” (KOREA RESEARCH INSTITUTE OF BIOSCIENCE AND BIOTECHNOLOGY, priority 2016, dated 2019)
